Literature values, collected in patent US20080300178A1, “Method For Treating Huntington's Disease by Inhibiting Dephosphorylation of Huntingtin at S421” (Insitut Curie, priority 2006, published 2008).
For at least one compound, name, drawing or mass did not settle the structure.

Tested on: cortical cells treated by 3NP
Settings: in vitro; cited from earlier work

Compound: C=CC[C@@H]1/C=C(\C)C[C@H](C)C[C@H](OC)[C@H]2O[C@@](O)(C(=O)C(=O)N3CCCC[C@H]3C(=O)O[C@H](/C(C)=C/[C@@H]3CC[C@@H](O)[C@H](OC)C3)[C@H](C)[C@@H](O)CC1=O)[C@H](C)C[C@@H]2OC [FK506]
- 3NP-induced cell death: blocked
